{"source": "PubChem BioAssay AID540276", "about": "(National Center for Advancing Translational Sciences (NCATS), 2011)", "note": "Among all 300,000 compounds or so, about 5,400 (1.8%) were called active. The shares of active, inactive and inconclusive entries below differ from those in the screen. Calls come from the whole dose curve; tested in HEK293 cells. Potencies of inconclusive entries are doubtful fits and often do not repeat. Potency is the fitted concentration of half-maximal effect.", "data": [{"assay": "qHTS for inhibitors of binding or entry into cells for Marburg Virus", "settings": "Marburg virus pseudotyped entry inhibition, cell reporter; series mostly up to 37.8 µM", "values": [{"smiles": "O=C(Nc1ccc(S(=O)(=O)N2CCc3ccccc32)cc1)C(F)(F)F", "Potency": "inconclusive: 6.31 µM [inhibitor, single point]"}, {"smiles": "CC1CCN(C2=NC(=O)/C(=C/c3ccc(O)cc3)S2)CC1", "Potency": "inconclusive: 35.5 µM [activator, single point]"}, {"smiles": "CC1=C/C(=N\\NC(=O)c2cccs2)CC(C)(C)C1", "Potency": "inactive"}, {"smiles": "O=C(NCCSc1c[nH]c2ccccc12)c1ccc(Br)o1", "Potency": "inactive"}, {"smiles": "CCOc1ccc(C2/C(=C(/O)c3ccc(S(=O)(=O)N4CCCCC4)cc3)C(=O)C(=O)N2CCCOC)cc1OC", "note": "(stereo not given)", "Potency": "inactive"}, {"smiles": "CCCn1cnc2cc(NCc3cccc(OC)c3)ccc21", "Potency": "inactive"}, {"smiles": "Cc1ccc(-c2nn(-c3cccc(F)c3)cc2CNCc2cccnc2)o1", "Potency": "inconclusive: 20 µM [inhibitor, partial curve, poor fit]"}, {"smiles": "Cc1ccc(-n2cc(CNCCn3nc(C)cc3C)c(-c3ccc(F)cc3)n2)cc1", "Potency": "inconclusive: 14.1 µM [inhibitor, single point]"}, {"smiles": "N/N=C/C(=N\\Nc1ccc(Cl)cc1)C(=O)c1ccncc1", "Potency": "inconclusive: 10 µM [inhibitor, partial curve, poor fit]"}, {"smiles": "CCOc1ccc(C2C(C(=O)Nc3ccccc3)=C(C)Nc3nc(-c4ccccc4Cl)nn32)cc1OC", "note": "(stereo not given)", "Potency": "inactive"}, {"smiles": "CCOC(=O)N1CCN(C(=O)NC2CCCCC2)CC1", "Potency": "inconclusive: 4.61 µM [activator, full curve, poor fit]"}, {"smiles": "O=[N+]([O-])c1ccc(O)c(Nc2ncnc3ccccc23)c1", "Potency": "inactive"}, {"smiles": "O=C(CCNc1cccc(Cl)c1)c1ccco1", "Potency": "inactive"}, {"smiles": "CCOC(=O)c1c(C)[nH]c2c1cc(O)c1ccccc12", "Potency": "inconclusive: 29.1 µM [activator, single point]"}, {"smiles": "O=C(CN1CCN(c2ncccn2)CC1)N1CCCC1", "Potency": "inconclusive: 3.55 µM [activator, partial curve, poor fit]"}, {"smiles": "O=C1Nc2ccc([N+](=O)[O-])cc2OC1CCN1CCN(c2ccccc2)CC1", "note": "(stereo not given)", "Potency": "inconclusive: 3.55 µM [activator, single point]"}, {"smiles": "COc1ccc(S(=O)(=O)Oc2ccc3cccc(N)c3c2)cc1", "Potency": "inconclusive: 8.91 µM [inhibitor, partial curve, poor fit]"}, {"smiles": "O=C(c1cnn(-c2ccccc2)c1)c1cc(Br)ccc1O", "Potency": "inconclusive: 0.316 µM [activator, full curve, poor fit]"}, {"smiles": "O=C(Nc1ccccc1O)C(c1ccccc1)c1ccccc1", "Potency": "inconclusive: 3.98 µM [inhibitor, partial curve]"}, {"smiles": "CSc1ccc(CNc2ccc(C)c(C)c2)cc1", "Potency": "inactive"}, {"smiles": "Clc1ccc2nc(-c3ccc(Cl)nc3)[nH]c2c1", "Potency": "active: 7.94 µM"}, {"smiles": "Cc1ccc(CN2CCCC(C(=O)c3sccc3C)C2)o1", "note": "(stereo not given)", "Potency": "inconclusive: 12.6 µM [inhibitor, partial curve, poor fit]"}, {"smiles": "CN(C)/C=C1\\N=C(c2cccnc2Oc2ccc(Cl)cc2)OC1=O", "Potency": "inactive"}, {"smiles": "Cc1cccc(N(CC(N)=O)C2SC(=O)NC2=O)c1", "note": "(stereo not given)", "Potency": "inconclusive: 3.16 µM [inhibitor, full curve]"}, {"smiles": "O=C(Nc1ccccc1)c1cccc(N2CCCC2=O)c1", "Potency": "inconclusive: 15.8 µM [inhibitor, single point]"}, {"smiles": "O=c1[nH]c(C2CCN(S(=O)(=O)c3ccccc3)CC2)nc2c1nnn2Cc1cccc(Cl)c1", "Potency": "inconclusive: 15.8 µM [inhibitor, single point]"}, {"smiles": "CCOc1ccc(-c2cc(NC(=O)c3ccccc3)c(C(=O)OC)s2)cc1", "Potency": "inactive"}, {"smiles": "COc1cccc(N2CC(C(=O)Nc3nnc(SCC(=O)Nc4cc(C)on4)s3)CC2=O)c1", "note": "(stereo not given)", "Potency": "inconclusive: 10 µM [activator, partial curve, poor fit]"}, {"smiles": "O=C(CC(=O)c1ccccc1)c1ccccc1", "Potency": "inconclusive: 3.55 µM [activator, single point]"}, {"smiles": "O=C(COc1ccc(S(=O)(=O)N2CCc3ccccc32)cc1Cl)NCc1ccccn1", "Potency": "inconclusive: 1.16 µM [activator, single point]"}, {"smiles": "CC(C)(C)SCCNC(=O)/C=C/c1ccccc1", "Potency": "inconclusive: 3.55 µM [activator, single point]"}, {"smiles": "O=C(O)Cc1ccc2oc(-c3cccnc3)nc2c1", "Potency": "inconclusive: 2.82 µM [inhibitor, single point]"}, {"smiles": "COCC1CCCN(Cc2nc(-c3ccc4c(c3)OCO4)no2)C1", "note": "(stereo not given)", "Potency": "inconclusive: 6.31 µM [activator, single point]"}, {"smiles": "CCN1C(=O)C(CC(=O)Nc2ccc(F)cc2)N(Cc2cccs2)C1=S", "note": "(stereo not given)", "Potency": "inactive"}, {"smiles": "COc1cccc(C(=O)Nc2ccc3nc(SCC(=O)N(C)c4ccccc4)sc3c2)c1", "Potency": "inconclusive: 31.6 µM [inhibitor, single point]"}, {"smiles": "Cc1ccccc1C1C(C#N)=C(N)N(N(C)C)C2=C1C(=O)CC(C)(C)C2", "note": "(stereo not given)", "Potency": "inconclusive: 35.5 µM [inhibitor, single point]"}, {"smiles": "CCN(CC)C(=O)c1cc(-c2ccc(Br)cc2)on1", "Potency": "inconclusive: 1.46 µM [activator, partial curve, poor fit]"}, {"smiles": "COc1ccccc1N(C)S(=O)(=O)c1ccc(C(=O)Nc2nnc(C)s2)cc1", "Potency": "inactive"}, {"smiles": "CCOc1ccc(NC(=O)c2cc([N+](=O)[O-])ccc2N2CCOCC2)cc1", "Potency": "inconclusive: 35.5 µM [inhibitor, single point]"}, {"smiles": "CCN(CCCNC(=O)COc1cc(=O)n(CC)c2ccccc12)Cc1ccccc1", "Potency": "inconclusive: 32.6 µM [inhibitor, single point]"}, {"smiles": "Cc1cc(C)c(COc2ccc(/C=N/n3c(C)n[nH]c3=S)cc2)c(C)c1", "Potency": "inactive"}, {"smiles": "Cc1occc1C(=O)N/N=C/C1=C(N2CCOCC2)C(=C/c2ccc(Cl)cc2Cl)/CC1", "Potency": "inactive"}, {"smiles": "Cc1ccc(NC(=O)Cn2c(=O)n(-c3ccc(C)cc3)c(=O)c3c2cnn3C)cc1", "Potency": "inactive"}, {"smiles": "COC(=O)c1ccc(NC(=O)Cc2ccc(C)cc2)cc1", "Potency": "inactive"}, {"smiles": "Nc1c(C(=O)NCc2ccccc2)c2nc3ccccc3nc2n1CCCN1CCOCC1", "Potency": "inconclusive: 1.84 µM [inhibitor, partial curve, poor fit]"}, {"smiles": "Cc1cc(C)nc(SCC(=O)NC2CCCC2)n1", "Potency": "inactive"}, {"smiles": "COCOCCn1cc(CN2CCS(=O)(=O)N(Cc3ccc(-c4ccc(F)nc4)cc3)C(C)C2=O)nn1", "note": "(stereo not given)", "Potency": "inconclusive: 0.0013 µM [inhibitor]"}, {"smiles": "O=C(NCc1ccco1)c1ccc(Br)c(S(=O)(=O)N2CCCCC2)c1", "Potency": "inconclusive: 20.6 µM [inhibitor, partial curve, poor fit]"}, {"smiles": "Cc1cc(OCC(O)CNC(C)c2ccccc2)ccc1C(C)C", "note": "(stereo not given)", "Potency": "inconclusive: 35.5 µM [inhibitor, partial curve, poor fit]"}, {"smiles": "Cc1ccc(C2C3=C(CC(C)(C)CC3=O)N=C3c4ccccc4C(=O)C32)cc1", "note": "(stereo not given)", "Potency": "inconclusive: 12.6 µM [inhibitor, partial curve, poor fit]"}, {"smiles": "Cc1ccc2nc(CSc3nnc(-c4ccncc4)n3C)cc(=O)n2c1", "Potency": "inconclusive: 6.31 µM [activator, single point]"}, {"smiles": "CCOC(=O)C1=C(C)NC(=O)NC1c1ccccc1Cl", "note": "(stereo not given)", "Potency": "inconclusive: 12.6 µM [inhibitor, single point]"}, {"smiles": "CSc1ccc(CNC(=O)C(C)n2nc(C)c3c(C)n(-c4ccccc4)nc3c2=O)cc1", "note": "(stereo not given)", "Potency": "inconclusive: 6.31 µM [inhibitor, single point]"}, {"smiles": "Clc1ccc2nc(CN3CCCc4ccccc43)cn2c1", "Potency": "inconclusive: 32.6 µM [inhibitor, single point]"}, {"smiles": "CC(C)c1csc(CN2CCN(Cc3ccc(F)cc3)C(CCO)C2)n1", "note": "(stereo not given)", "Potency": "inactive"}, {"smiles": "CN(C)c1nc(N)nc(-c2ccco2)n1", "Potency": "inconclusive: 35.5 µM [activator, partial curve, poor fit]"}, {"smiles": "O=c1c2sc3ccccc3c2n(Cc2cccc(F)c2)c(=O)n1CCc1ccccc1", "Potency": "inconclusive: 35.5 µM [activator, single point]"}, {"smiles": "CCN(CC)C(=O)Cn1c(=O)n(CCCCCC(=O)NCc2ccc3c(c2)OCO3)c(=O)c2sccc21", "Potency": "inactive"}, {"smiles": "O=C(CN1C(=O)NC(Cc2c[nH]c3ccccc23)C1=O)Nc1cccc(S(=O)(=O)N2CCCC2)c1", "note": "(stereo not given)", "Potency": "inactive"}, {"smiles": "Cc1cccc2c1-c1sc(C(=O)Nc3ccc(F)cc3F)cc1CO2", "Potency": "inconclusive: 14.1 µM [activator, partial curve, poor fit]"}, {"smiles": "COc1ccc(C(=O)ON=C2c3ccccc3-c3ccccc32)cc1OC", "Potency": "inconclusive: 0.708 µM [activator, partial curve, poor fit]"}, {"smiles": "Cc1ccc(C(=O)NCCSC(C)(C)C)cc1", "Potency": "active: 8.91 µM"}, {"smiles": "S=C(Nc1nc2c(s1)CCCC2)NC1CC1", "Potency": "inconclusive: 1.26 µM [activator, full curve, poor fit]"}, {"smiles": "COc1ccccc1NC(=O)c1ccc(NC(=O)COC(=O)c2cccnc2Cl)cc1", "Potency": "inconclusive: 6.31 µM [activator, single point]"}, {"smiles": "O=C(NCCCN1CCOCC1)NC1CCCCC1", "Potency": "inconclusive: 15.8 µM [activator, single point]"}, {"smiles": "Cc1cc(C)c(C)c(N=Nc2nc3ccccc3n2C)c1C", "Potency": "inconclusive: 14.1 µM [inhibitor, single point]"}, {"smiles": "Cc1ccc(/C=N/Nc2ccc3ccccc3n2)o1", "Potency": "active: 1.26 µM"}, {"smiles": "CCOC(=O)NC(C(Cl)(Cl)Cl)S(=O)(=O)c1ccccc1", "note": "(stereo not given)", "Potency": "inconclusive: 3.16 µM [inhibitor, partial curve]"}, {"smiles": "Cc1cc(Cl)ccc1-n1c(CCC(=O)O)ccc1-c1cccs1", "Potency": "inactive"}, {"smiles": "CN(C)c1ccc(-c2nnn(CC(=O)Nc3ccccc3N3CCOCC3)n2)cc1", "Potency": "inconclusive: 32.6 µM [inhibitor, single point]"}]}]}
